Test results: US20060008891A1, “Cathepsin G-related peptides as modulators of formylpeptide receptors (FPR)” (The Government of USA as repersented by the Secretary, …, priority 2004, published 2006)
For at least one compound, name, drawing or mass did not settle the structure.

What was measured:
FPR = biological target: T1, FPR (Homo sapiens, UniProt P21462); test: Chemotaxis assay, RBL cells transfected with FPR (ETFR cells); type: cell-based; conditions: for inhibition of ETFR cell chemotaxis to CaG: CaG 10 μg/ml; for inhibition of ETFR cell chemotaxis to fMLF: fMLF 100 nM
T1 construct: expressed in transfected cells; host or cells: Rat basophilic leukemia (RBL) cells, stably transfected (ETFR cells); gift of H. Ali and R. Snyderman, Duke University
T1 sequence (P21462 1-350): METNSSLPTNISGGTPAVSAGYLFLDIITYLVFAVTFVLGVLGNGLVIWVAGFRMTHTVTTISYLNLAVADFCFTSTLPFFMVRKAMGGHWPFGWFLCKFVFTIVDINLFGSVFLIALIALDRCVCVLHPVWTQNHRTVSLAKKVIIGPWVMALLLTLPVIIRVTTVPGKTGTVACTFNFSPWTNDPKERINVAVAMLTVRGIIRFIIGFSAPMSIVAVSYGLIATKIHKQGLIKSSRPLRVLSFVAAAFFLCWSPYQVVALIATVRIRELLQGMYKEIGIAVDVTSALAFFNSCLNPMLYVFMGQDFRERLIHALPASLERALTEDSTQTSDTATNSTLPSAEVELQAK
Experimental: (§1) Human PBMC were isolated from leukopacks obtained through the courtesy of Transfusion Medicine Department, National Institutes of Health Clinical Center (Bethesda, Md.) by Ficoll-Hypaque density gradient centrifugation. Monocytes were purified from human PBMC by Percoll gradient to yield>90% pure preparations. […] H. Ali and R. Snyderman, Duke University (Durham, N.C.) and maintained in the presence of 0.8 mg/ml geneticin (G418, Life Technologies, Rockville, Md.) in DMEM supplemented with 10% FCS. B. Chemotaxis assay Migration of phagocytes and ETFR cells was assessed using a 48-well microchemotaxis chamber (Neuroprobe, Cabin John, Md.) as previously described (Hu et al. (2001) J Leukoc Biol 70 15512). Briefly, different concentrations of stimulants were placed in the wells of the lower compartment of the chamber, and 50 μl cells (1.5×10^6 cells/ml for monocyte and neutrophil, 1×10^6 ETFR cells/ml) were added to the wells of the upper compartment. The lower and upper compartments were separated by either a 5-μm (for monocyte) or a 10-μm pore size, collagen-coated (for ETFR cells) polycarbonate filter (Osmonics, Livermore, Calif.). After incubation at 37° C. in humidified air with 5% CO2 (60 min for neutrophils, 90 min for monocytes, 4.5 h for ETFR cells), the filter was removed and stained, and the cells migrating across the filter were counted with light microscopy. The results are presented as the mean number of cells (±SD) in three high power fields (HPFs). For analysis of cross-desensitization, cells were pretreated with indicated reagents for 1 h at 37° C. After thorough washing with cold medium (RPMI 1640, 1% BSA), the cells were resuspended and assayed. To measure the effect of various signaling inhibitors, unless otherwise indicated, the cells were pre-incubated at 37° C. for 60 min with the inhibitors, and were then added to the upper wells of the chemotaxis chamber.

neutrophils = test: Chemotaxis assay, neutrophils; type: cell-based; conditions: human neutrophils
Experimental: as §1

| SMILES | inhibition of ETFR cell chemotaxis to CaG (FPR) | inhibition of ETFR cell chemotaxis to fMLF (FPR) | inhibition of neutrophil chemotaxis to CaG (neutrophils) | inhibition of neutrophil chemotaxis to IL-8 (neutrophils) | inhibition of neutrophil chemotaxis to fMLF (neutrophils) |
| --- | --- | --- | --- | --- | --- |
| COC[C@H]1OC(=O)c2coc3c2[C@@]1(C)C1=C(C3=O)[C@@H]2CCC(=O)[C@@]2(C)C[C@H]1OC(C)=O [Wortmannin] | abrogated chemotaxis of ETFR cells induced by either CaG or fMLF | abrogated chemotaxis of ETFR cells induced by either CaG or fMLF |  |  |  |
| COc1ccc2c(c[n+](C)c3c4cc5c(cc4ccc23)OCO5)c1OC [chelerythrine chloride] | markedly inhibited the cell migration to CaG and fMLF | markedly inhibited the cell migration to CaG and fMLF | abolished the cell chemotaxis to CaG, fMLF as well as a chemokine IL-8 | abolished the cell chemotaxis to CaG, fMLF as well as a chemokine IL-8 | abolished the cell chemotaxis to CaG, fMLF as well as a chemokine IL-8 |
